Measured values from patent US9133126B2, “Fluoroalkyl dibenzoazepinone compounds” (BRISTOL-MYERS SQUIBB COMPANY, priority 2012, dated 2015).
Some entries share one result that the patent states for a list of compounds.

Columns and labels:
human Notch 1 = human Notch 1 (Homo sapiens, UniProt P49768); test: Notch-CBF1 Transactivation Assay (Notch 1); assay type: cell-based; conditions: read-out: Notch 1 (IC50); HeLa cells co-transfected with truncated Notch 1 and CBF1 luciferase reporter, 18 hours incubation
[1] = Human metabolic stability half-life assay; conditions: class from human microsome T1/2
human Notch 3 = human Notch 3 (Homo sapiens, UniProt P49768); test: Notch-CBF1 Transactivation Assay (Notch 3); assay type: cell-based; conditions: read-out: Notch 3 (IC50); HeLa cells co-transfected with truncated Notch 3 and CBF1 luciferase reporter, 18 hours incubation

| Compound | IC50 (human Notch 1) | CYP-mediated clearance in the human metabolic stability half life assay [1] | IC50 (human Notch 3) |
| --- | --- | --- | --- |
| CCC[C@@H](C(=O)N[C@@H]1C(=O)Nc2ccccc2-c2ccccc21)[C@H](CCC(F)(F)F)C(N)=O [Example 4, (2R,3S)-N-((7S)-6-Oxo-6,7-dihydro-5H-dibenzo[b,d]azepin-7-yl)-2-propyl-3-(3,3,3-trifluoropropyl)succinamide] | ≤ 25.9 nM |  |  |
| NC(=O)[C@@H](c1ccccc1)[C@@H](CCC(F)(F)F)C(=O)N[C@@H]1C(=O)Nc2ccccc2-c2ccccc21 [Example 6, (2R,3R)-N-((7S)-6-Oxo-6,7-dihydro-5H-dibenzo[b,d]azepin-7-yl)-3-phenyl-2-(3,3,3-trifluoropropyl)succinamide] | ≤ 25.9 nM |  |  |
| CCC[C@H](C(N)=O)[C@@H](CC(C)C)C(=O)N[C@H]1N=C(c2ccccc2)c2ccccc2N(C)C1=O [Comparative Compound 12] |  | high |  |
| CCCC[C@H](C(N)=O)[C@@H](CC(C)C)C(=O)N[C@H]1N=C(c2ccc(Cl)cc2)c2ccccc2N(C)C1=O [Comparative Compound 14] |  | high |  |
| C=CC[C@H](C(N)=O)[C@@H](CC(C)C)C(=O)N[C@H]1N=C(c2ccccc2)c2ccccc2N(CCC)C1=O [Comparative Compound 15] |  | high |  |
| C=CC[C@H](C(N)=O)[C@@H](CC(C)C)C(=O)N[C@H]1N=C(c2ccccc2)c2cc(Cl)ccc2N(C)C1=O [Comparative Compound 13] |  | high |  |
| NC(=O)[C@@H](CC1CC1)[C@@H](CCC(F)(F)F)C(=O)N[C@@H]1C(=O)Nc2c(F)cccc2-c2ccccc21 [Example 5, (2R,3S)-3-(Cyclopropylmethyl)-N-((7S)-4-fluoro-6-oxo-6,7-dihydro-5H-dibenzo[b,d]azepin-7-yl)-2-(3,3,3-trifluoropropyl)succinamide] | ≤ 25.9 nM |  | ≤ 43.3 nM |
